Results reported in publication PMC9849758, “Chemically diverse activity-based probes with unexpected inhibitory mechanisms targeting trypsin-like serine proteases” (Frontiers in Chemistry, 2023).

Amino acid sequences for entries named in this document (tags omitted). Residues count along the entry.
UniProt P35030, whole entry: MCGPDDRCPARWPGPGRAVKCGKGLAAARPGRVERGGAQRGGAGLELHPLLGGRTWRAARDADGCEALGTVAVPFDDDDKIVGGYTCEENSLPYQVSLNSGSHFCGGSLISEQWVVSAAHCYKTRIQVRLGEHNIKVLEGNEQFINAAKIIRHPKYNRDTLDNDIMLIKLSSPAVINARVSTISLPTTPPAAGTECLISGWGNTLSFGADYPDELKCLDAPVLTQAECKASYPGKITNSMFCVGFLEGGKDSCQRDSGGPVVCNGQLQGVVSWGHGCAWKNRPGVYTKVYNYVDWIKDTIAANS
UniProt P20231, 31-275 limits assumed: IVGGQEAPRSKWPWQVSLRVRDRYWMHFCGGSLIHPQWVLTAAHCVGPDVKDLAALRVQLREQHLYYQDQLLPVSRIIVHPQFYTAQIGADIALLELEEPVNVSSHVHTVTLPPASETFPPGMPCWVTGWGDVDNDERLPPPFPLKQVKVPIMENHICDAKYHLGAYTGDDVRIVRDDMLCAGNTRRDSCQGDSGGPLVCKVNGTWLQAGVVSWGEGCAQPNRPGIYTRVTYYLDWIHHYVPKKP
UniProt P08311, 21-255 limits assumed: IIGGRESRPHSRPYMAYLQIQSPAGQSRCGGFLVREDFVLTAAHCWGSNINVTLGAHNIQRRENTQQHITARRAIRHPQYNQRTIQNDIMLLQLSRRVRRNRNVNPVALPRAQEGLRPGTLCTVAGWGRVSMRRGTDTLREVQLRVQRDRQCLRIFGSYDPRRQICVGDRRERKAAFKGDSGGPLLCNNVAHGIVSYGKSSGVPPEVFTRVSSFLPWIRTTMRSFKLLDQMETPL

Key:
[1] = target: Trypsin-3 (recombinant trypsin-3) (Homo sapiens, UniProt P35030); test: IC50 determination, spectrophotometric protease assay; format: biochemical; conditions: read-out: Trypsin-3 IC50; desthiobiotin probes; 15 min preincubation at 37°C; mean ± SD; tested form: TFA
Experimental: (§1) The IC50 value is defined as the concentration of inhibitor required to reduce the enzyme activity to 50% after a 15 min preincubation with the enzyme at 37°C before the addition of the substrate. The IC50 values were determined using a spectrophotometric assay. All the experiments were conducted in duplicate. The readout consisted of evaluating the protease-mediated release of the chromophore para-nitroaniline (pNA) or fluorophore 7-amino-4-methyl coumarin (AMC) moieties from the respective substrates. Enzymatic activity was measured for 30 min at 37°C. All compounds were initially screened at three concentrations (10, 1, and .1 μM) to estimate the range of the IC50 value. Those which were able to reduce protease activity by at least 50% at a concentration of 10 μM were submitted to an exact IC50 determination. […] A third independent experiment was performed when the standard deviation of the two independent experiments was higher than […]. IC50 values were obtained by fitting the data with the four-parameter logistics equation using GraphPad Prism 9.
(§2) The conditions for each protease are described as follows, the concentration of substrate used was at the corresponding Km.
(§3) Trypsin-3 (recombinant trypsin-3, R&D) and fluorogenic substrate tosyl-Gly-Pro-Arg-AMC (Km = 22.5 μM) were used in Tris buffer (100 mM Tris, 1 mM CaCl2) at pH 8.0 (25°C). Tryptase (recombinant tryptase β-2, EnzoLife Sciences) and fluorogenic substrate Boc-Gln-Ala-Arg-AMC (Km = 250 μM) were used in Tris buffer (50 mM Tris, 120 mM NaCl, .1 mg/ml BSA, .1 mg/ml heparin) at pH 8.0 (25°C). Thrombin (recombinant thrombin, R&D) and fluorogenic substrate Boc-Val-Pro-Arg-AMC (Km = 15 μM) were used in TRIS buffer (50 mM Tris HCl, 50 mM Tris base, 10 mM CaCl2, 150 mM NaCl) at pH 8.3 (25°C). uPA (recombinant urokinase plasminogen activator, HYPHEN BioMed) and chromogenic substrate pyro-Glu-Gly-Arg-pNA (Km = 80 μM) were used in HEPES buffer (50 mM HEPES) at pH 8.1 (25°C). Cathepsin G (cathepsin G human neutrophil, Sigma-Aldrich) and fluorogenic substrate Suc-Ala-Ala-Pro-Phe-AMC (Km = 130 μM) were used in Tris buffer (50 mM Tris, 120 mM NaCl) at pH 8.0 (25°C). TLCK-treated pancreatic bovine chymotrypsin (Sigma-Aldrich) and fluorescent substrate Suc-Ala-Ala-Pro-Phe-AMC (Km = 58 μM) were used in Tris buffer (50 mM Tris, 20 mM CaCl2) at pH 8.3 (25°C). Neutrophil Elastase (recombinant neutrophil elastase, Enzo LifeSciences) and fluorogenic substrate Suc-Ala-Ala-Pro-Val-AMC (Km = 500 μM) were used in Tris buffer (50 mM Tris, 120 mM NaCl) at pH 8.0 (25°C).

[2] = target: β-tryptase (recombinant tryptase β-2) (Homo sapiens, UniProt P20231); test: as above; format: biochemical; conditions: read-out: β-tryptase IC50; desthiobiotin probes; 15 min preincubation at 37°C; mean ± SD; tested form: TFA
Experimental: as §1, §2, §3

[3] = target: uPA (recombinant urokinase plasminogen activator) (Homo sapiens, UniProt P00749); test: as above; format: biochemical; conditions: read-out: uPA IC50; desthiobiotin probes; 15 min preincubation at 37°C; mean ± SD; tested form: TFA
Experimental: as §1, §2, §3

[4] = target: Thrombin (recombinant thrombin) (Homo sapiens, UniProt P00734); test: as above; format: biochemical; conditions: read-out: Thrombin IC50; desthiobiotin probes; 15 min preincubation at 37°C; mean ± SD; tested form: TFA
Experimental: as §1, §2, §3

[5] = target: Cathepsin G (cathepsin G human neutrophil) (Homo sapiens, UniProt P08311); test: as above; format: biochemical; conditions: read-out: CatG IC50; desthiobiotin probes; 15 min preincubation at 37°C; mean ± SD; tested form: TFA
Experimental: as §1, §2, §3

[6] = target: TLCK-treated pancreatic bovine chymotrypsin (Bos taurus, UniProt P00766); test: as above; format: biochemical; conditions: read-out: ChTryp IC50; desthiobiotin probes; 15 min preincubation at 37°C; mean ± SD; tested form: TFA
Experimental: as §1, §2, §3

β-tryptase = β-tryptase (Homo sapiens, UniProt P20231); test: Labeling and detection of recombinant proteases (SDS-PAGE blot, NeutrAvidin-HRP); format: binding; conditions: 1 µM ABP, 100 ng protease, 30 min 37°C, denaturing SDS-PAGE blot; tested form: TFA
Experimental: Recombinant proteases (100 ng) were labeled with 1 µM ABP in reaction buffer in a final volume of 40 µL for 30 min at 37°C. After the addition of 4X Laemmli buffer (Bio-Rad, GmbH) supplemented with Bond-Breaker Tris (2-CarboxyEthyl)Phosphine (TCEP) Solution (Thermo Scientific, United States), the samples were heated at 95°C for 5 min and loaded into 4%–20% Mini-Protean TGX precast gels (Bio-Rad, GmbH). After electrophoresis, the proteins were blotted onto nitrocellulose membranes using the Trans-Blot Transfer Turbo System (Bio-Rad). Membranes were incubated with NeutrAvidin-HRP (1:50,000), and bands were visualized with ECL Select Western Blot Detection Reagent (GE Healthcare Life Sciences) by chemiluminescence (Chemidoc XRS; Bio-Rad). The molecular weight of each band was determined with the Image Lab Software v5 (Bio-Rad).
To further characterize the newly synthesized compounds and their potential to be used as ABPs, nine desthiobiotin probes were used for the labeling and detection of recombinant proteases. The arginine (45b–46b) and the proline-lysine (58b) desthiobiotin probes were used as reference compounds. Whereas the benzyl guanidine (50b, 52b, 54b) and phenyl guanidine probes (55b–57b) were used to determine whether the mechanism of inhibition (reversible or irreversible) is an obstacle to visualize the proteases. […]

`C[C@@H]1NC(=O)N[C@@H]1CCCCCC(=O)NCCOCCOCCOCCn1cc(CCCC(=O)N2CCCC2C(=O)NC(CCCCN)P(=O)(Oc2ccccc2)Oc2ccccc2)nn1` (stereo partly shown) showed an IC50 [1] of 160 nM, an IC50 [2] of 6410 nM and an IC50 [3] of 6510 nM. The IC50 [4] was 160 nM, the IC50 [5] was 2900 nM and the IC50 [6] was greater than 10000 nM. For the same compound, the “labeling of recombinant β-tryptase” value (β-tryptase) was “not good ABP candidates”.

Structures were worked out from names or drawings and are uncertain.
